No constants are given. Whether binding was seen depends on the method and setting.
Molecular target: recombinant hSOD1^G85R (human) (UniProt P00441)
Experiment: co-IP; recombinant hSOD1^G85R (4 µg) incubated with or without recombinant MIF (2 µg); misfolded SOD1 immunoprecipitated overnight with A5C3 antibody crosslinked to Dynabeads protein G; IP buffer 50 mM Tris-HCl pH 7.4, 150 mM NaCl, 1 mM EDTA, 0.5% NP-40; immunoblot; both purified

By UniProt entry, the sequences of proteins in these tests, tags left out. Where a name states a change or a piece, a line headed by the entry shows the natural chain unless it says otherwise. Chains listed by the source or under a name are the forms on record and can include a tag or linker.
UniProt P00441: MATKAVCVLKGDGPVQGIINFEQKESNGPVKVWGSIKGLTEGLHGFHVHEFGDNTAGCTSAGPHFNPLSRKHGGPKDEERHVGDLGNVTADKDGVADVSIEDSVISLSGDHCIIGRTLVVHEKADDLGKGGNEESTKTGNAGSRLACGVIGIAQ
recombinant hSOD1^G85R (P00441, form named): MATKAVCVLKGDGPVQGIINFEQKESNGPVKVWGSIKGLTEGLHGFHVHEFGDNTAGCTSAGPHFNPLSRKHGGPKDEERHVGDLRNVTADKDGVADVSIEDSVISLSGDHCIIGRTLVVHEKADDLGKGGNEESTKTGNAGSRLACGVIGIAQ

B1: macrophage migration inhibitory factor, wild type (MIF^WT) (natural protein, human, UniProt P14174 1-115, looked up)
chain: MPMFIVNTNVPRASVPDGFLSELTQQLAQATGKPPQYIAVHVVPDQLMAFGGSSEPCALCSLHSIGKIGGAQNRSYSKLLCGLLAERLRISPDRVYINYYDMNAANVGWNNSTFA
notes: No tag is mentioned; Surmise: the initiator methionine is removed in E. coli, since tautomerase activity was measured; also called recombinant MIF; hMIF; source: E. coli BL21 (DE3), purified (Capto Q anion exchange, Capto S cation exchange)
- binding: no binding

— paper PMC5833700, “MIF inhibits the formation and toxicity of misfolded SOD1 amyloid aggregates: implications for familial ALS” (Cell Death & Disease, 2018)
